Experimental data taken from publication PMC8657633.
Construct, isoform or probe ends are uncertain for at least one entry. For part of these data: Weaker means in comparison with the reference protein, sequence or condition of that experiment. For part of these data: At least one verdict rests on a figure or table, not on a statement of the authors.

Chains of the proteins cited; added tags and fusions are not shown. Lines headed by an entry give the natural chain unless they say otherwise; changes in a name come on top.
UniProt Q9LS25: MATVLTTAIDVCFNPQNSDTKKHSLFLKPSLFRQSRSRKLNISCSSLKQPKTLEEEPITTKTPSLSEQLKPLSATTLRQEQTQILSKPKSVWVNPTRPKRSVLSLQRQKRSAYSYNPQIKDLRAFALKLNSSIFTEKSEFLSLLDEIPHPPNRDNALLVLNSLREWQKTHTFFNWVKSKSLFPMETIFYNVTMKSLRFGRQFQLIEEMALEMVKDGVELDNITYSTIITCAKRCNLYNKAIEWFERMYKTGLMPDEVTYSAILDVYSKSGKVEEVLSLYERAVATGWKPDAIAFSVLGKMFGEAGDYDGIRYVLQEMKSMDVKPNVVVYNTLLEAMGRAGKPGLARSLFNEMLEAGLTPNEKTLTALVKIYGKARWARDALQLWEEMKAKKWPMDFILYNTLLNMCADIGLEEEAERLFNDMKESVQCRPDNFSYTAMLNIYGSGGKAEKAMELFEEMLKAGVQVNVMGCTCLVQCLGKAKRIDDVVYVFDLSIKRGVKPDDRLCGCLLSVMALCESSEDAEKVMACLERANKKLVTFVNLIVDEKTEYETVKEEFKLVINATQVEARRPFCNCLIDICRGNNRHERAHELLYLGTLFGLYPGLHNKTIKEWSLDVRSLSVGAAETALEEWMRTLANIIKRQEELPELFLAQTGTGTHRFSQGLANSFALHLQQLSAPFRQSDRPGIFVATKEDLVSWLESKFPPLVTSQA

Assays:
Assay in all cases: EMSA
[1] = target: MBP-SOT1 (Arabidopsis thaliana) (UniProt Q9LS25); details: no CAF, affinity considerably lower than with CAF1 or CAF2; 10 mM HEPES pH 7.3, 20 mM KCl, 2 mM MgCl2, 1 mM DTT, 5% glycerol, RNA probe 1 nM (Methods) or 10 nM, 22 C, 30 min; 7% native PAGE; recombinant protein; protein details: MBP; label: 5' biotin
MBP-SOT1 + CAF2 = details: CAF2 added in increasing amounts, 10 nM probe, enhances SOT1 binding; 10 mM HEPES pH 7.3, 20 mM KCl, 2 mM MgCl2, 1 mM DTT, 5% glycerol, RNA probe 1 nM (Methods) or 10 nM, 22 C, 30 min; 7% native PAGE; recombinant protein; protein details: MBP; label: 5' biotin
MBP-SOT1 + CAF1 = details: CAF1 added in increasing amounts, 10 nM probe, enhances SOT1 binding; 10 mM HEPES pH 7.3, 20 mM KCl, 2 mM MgCl2, 1 mM DTT, 5% glycerol, RNA probe 1 nM (Methods) or 10 nM, 22 C, 30 min; 7% native PAGE; recombinant protein; protein details: MBP; label: 5' biotin

“UGGCUGAUAUUA [ndhA 5' end 12-nt RNA (RNA 12)]”: binds more weakly [1]; binds (MBP-SOT1 + CAF2); binds (MBP-SOT1 + CAF1).
